PubChem BioAssay AID1259308, NCATS, 2017

- Aim: 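Genes whose loss raises luciferase production in HEK293 cells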 (primary screen)
- System: human HEK293 embryonic kidney cells stably expressing firefly luciferase (HEK-CMV-Luc2-Hygro)
- Reagent: single siRNA against human genes, 0.8 pmol siRNA per well
- Duration: 72 h
- Read-out: 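Luciferase light (ONE-Glo) measured on one replicate plate set and viability (CellTiter-Glo) on the other, scaled to a negative control siRNA, with robust z-scores and luciferase per cell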
- Scale: total luciferase, z-score and total luciferase, % of control: higher = more reporter protein produced; luciferase per cell, z-score: higher = more reporter output per viable cell; viable cells, % of control: higher = more viable cells
- Hit rule: 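Active when the median/MAD z-score for overall luciferase is greater than 3; a gene was taken forward for validation with new siRNAs if at least two of its three siRNAs passed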
- Calls: active = raised luciferase; inactive = no rise
Here is one part, drawn at random, of about 59,000 deposited reagents. Over the whole deposit, about 1,510 (2.6%) were called active. 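Calls use total luciferase alone and ignore viability, so some active siRNAs may act by altering cell number.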 The numbers tell different reagents against one gene apart.

no.	target	reagent no.	total luciferase, z-score	total luciferase, % of control	luciferase per cell, z-score	viable cells, % of control	outcome
1	AFAP1L2 (GeneID 84632)	1	0.393	89.7	0.623	85.1	inactive
2	AFAP1L2 (GeneID 84632)	2	-1.37	54.7	-0.719	73.9	inactive
3	AFAP1L2 (GeneID 84632)	3	-1.91	43.9	-1.11	65.9	inactive
4	MAML2 (GeneID 84441)	1	0.531	92.4	-0.451	116	inactive
5	MAML2 (GeneID 84441)	2	0.523	92.3	0.212	97.5	inactive
6	MAML2 (GeneID 84441)	3	-0.473	72.5	-1.09	108	inactive
7	NBPF11 (GeneID 200030)	1	-0.768	66.6	-0.271	79.9	inactive
8	NBPF11 (GeneID 200030)	2	-1.65	49.1	-1.98	92.3	inactive
9	NBPF11 (GeneID 200030)	3	-0.135	79.2	-0.412	98.7	inactive
10	HAPSTR2 (GeneID 389895)	1	0.619	94.2	-0.197	111	inactive
11	HAPSTR2 (GeneID 389895)	2	0.33	88.5	0.378	89.5	inactive
12	HAPSTR2 (GeneID 389895)	3	-0.28	76.3	-0.406	94.9	inactive
13	IRF2BPL (GeneID 64207)	1	0.252	86.9	0.139	93.6	inactive
14	IRF2BPL (GeneID 64207)	2	-0.845	65.1	-1.07	96.4	inactive
15	IRF2BPL (GeneID 64207)	3	-0.197	78	0.0918	85	inactive
16	GNAS (GeneID 2778)	1	-0.776	66.5	-0.675	88.7	inactive
17	GNAS (GeneID 2778)	2	-1.54	51.3	-1.57	86.6	inactive
18	GNAS (GeneID 2778)	3	-1.43	53.5	-1.89	98.3	inactive
19	STT3A (GeneID 3703)	1	-0.205	77.8	-0.587	101	inactive
20	STT3A (GeneID 3703)	2	-0.528	71.4	-0.702	96	inactive
21	STT3A (GeneID 3703)	3	0.497	91.8	0.293	94.9	inactive
22	LY96 (GeneID 23643)	1	1.36	109	0.653	103	inactive
23	LY96 (GeneID 23643)	2	0.377	89.4	-0.168	104	inactive
24	LY96 (GeneID 23643)	3	-0.968	62.6	-0.922	89.2	inactive
25	WFDC11 (GeneID 259239)	1	0.029	82.5	-0.118	95.1	inactive
26	WFDC11 (GeneID 259239)	2	-0.6	70	-0.109	80.5	inactive
27	WFDC11 (GeneID 259239)	3	0.163	85.1	0.515	83.1	inactive
28	KCTD17 (GeneID 79734)	1	1.69	116	0.657	109	inactive
29	KCTD17 (GeneID 79734)	2	-1.31	55.9	-1.36	89.3	inactive
30	KCTD17 (GeneID 79734)	3	-1.15	59	-1.62	101	inactive
31	ANAPC5 (GeneID 51433)	1	-0.0845	80.2	1.19	65.5	inactive
32	ANAPC5 (GeneID 51433)	2	0.347	88.8	0.173	94.8	inactive
33	ANAPC5 (GeneID 51433)	3	-0.842	65.1	-0.999	94.7	inactive
34	KBTBD4 (GeneID 55709)	1	3.51	152	2.79	81.3	active
35	KBTBD4 (GeneID 55709)	2	0.678	95.4	-0.215	113	inactive
36	KBTBD4 (GeneID 55709)	3	0.605	93.9	-0.0441	106	inactive

7 of these entries, set out differently.
{"target":"HAPSTR2 (GeneID 389895)","reagent no.":2,"total luciferase, z-score":0.33,"total luciferase, % of control":88.5,"luciferase per cell, z-score":0.378,"viable cells, % of control":89.5,"outcome":"inactive"}
{"target":"HAPSTR2 (GeneID 389895)","reagent no.":3,"total luciferase, z-score":-0.28,"total luciferase, % of control":76.3,"luciferase per cell, z-score":-0.406,"viable cells, % of control":94.9,"outcome":"inactive"}
{"target":"IRF2BPL (GeneID 64207)","reagent no.":1,"total luciferase, z-score":0.252,"total luciferase, % of control":86.9,"luciferase per cell, z-score":0.139,"viable cells, % of control":93.6,"outcome":"inactive"}
{"target":"IRF2BPL (GeneID 64207)","reagent no.":2,"total luciferase, z-score":-0.845,"total luciferase, % of control":65.1,"luciferase per cell, z-score":-1.07,"viable cells, % of control":96.4,"outcome":"inactive"}
{"target":"IRF2BPL (GeneID 64207)","reagent no.":3,"total luciferase, z-score":-0.197,"total luciferase, % of control":78,"luciferase per cell, z-score":0.0918,"viable cells, % of control":85,"outcome":"inactive"}
{"target":"GNAS (GeneID 2778)","reagent no.":1,"total luciferase, z-score":-0.776,"total luciferase, % of control":66.5,"luciferase per cell, z-score":-0.675,"viable cells, % of control":88.7,"outcome":"inactive"}
{"target":"GNAS (GeneID 2778)","reagent no.":2,"total luciferase, z-score":-1.54,"total luciferase, % of control":51.3,"luciferase per cell, z-score":-1.57,"viable cells, % of control":86.6,"outcome":"inactive"}

The listing continues.
no.	target	reagent no.	total luciferase, z-score	total luciferase, % of control	luciferase per cell, z-score	viable cells, % of control	outcome
37	SIGLEC11 (GeneID 114132)	1	-0.0243	81.4	-0.249	97.1	inactive
38	SIGLEC11 (GeneID 114132)	2	0.126	84.4	-0.355	104	inactive
39	SIGLEC11 (GeneID 114132)	3	-1.89	44.3	-2.04	84.8	inactive
40	GMFG (GeneID 9535)	1	-0.355	74.8	-0.612	98.2	inactive
41	GMFG (GeneID 9535)	2	1.06	103	1.86	70.5	inactive
42	GMFG (GeneID 9535)	3	-1.5	52.1	-1.63	89.4	inactive
43	LOC285191 (GeneID 285191)	1	-0.162	78.7	-0.215	93	inactive
44	LOC285191 (GeneID 285191)	2	0.0835	83.5	0.806	75.5	inactive
45	LOC285191 (GeneID 285191)	3	0.0643	83.2	1	71.3	inactive
46	GIPR (GeneID 2696)	1	0.708	96	-0.00509	107	inactive
47	GIPR (GeneID 2696)	2	0.745	96.7	0.729	89.2	inactive
48	GIPR (GeneID 2696)	3	1.34	109	1.24	87.5	inactive
49	MTMR3 (GeneID 8897)	1	-0.502	71.9	0.0241	79.8	inactive
50	MTMR3 (GeneID 8897)	2	-1.09	60.1	-1.2	92.2	inactive
51	MTMR3 (GeneID 8897)	3	-1.47	52.7	-1.73	92.7	inactive
52	MFSD1 (GeneID 64747)	1	-0.96	62.8	-1.42	102	inactive
53	MFSD1 (GeneID 64747)	2	-1.93	43.4	-2.01	82.4	inactive
54	MFSD1 (GeneID 64747)	3	-0.512	71.7	0.0804	78.5	inactive
55	GPR148 (GeneID 344561)	1	-0.499	72	-1.04	106	inactive
56	GPR148 (GeneID 344561)	2	2.77	137	1.62	99.8	inactive
57	GPR148 (GeneID 344561)	3	-0.573	70.5	-1.1	105	inactive
